These results are taken from patent US20210396758A1.

These are yes or no findings as the source states them, for the method shown. Some binding calls cover weakened binding; strength is not graded here. Sequences can lack the tags named with a protein.

For experiment [1], the target named is T1, human Loricrin (human) (UniProt P23490).
T1 sequence: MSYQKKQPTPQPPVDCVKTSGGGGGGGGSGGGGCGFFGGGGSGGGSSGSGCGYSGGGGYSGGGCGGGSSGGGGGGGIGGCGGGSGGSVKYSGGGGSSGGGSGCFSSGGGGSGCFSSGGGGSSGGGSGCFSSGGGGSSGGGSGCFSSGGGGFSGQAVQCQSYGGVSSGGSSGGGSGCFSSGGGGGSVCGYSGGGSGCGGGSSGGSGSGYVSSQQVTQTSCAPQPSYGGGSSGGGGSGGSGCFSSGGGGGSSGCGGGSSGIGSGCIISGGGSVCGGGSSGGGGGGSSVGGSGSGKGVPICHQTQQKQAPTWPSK
The experiment in a line: automated immunohistochemistry (Ventana Benchmark XT), chimeric mouse IgG1 format.

Experiment [2] addresses T1, human Loricrin (human). Nature of the experiment: QC ELISA of the chimeric human/mouse IgG1 antibody on immobilized Loricrin; signal over background. Background: An ELISA detects its analyte on a solid surface through an enzyme-linked reagent.

B1: AbD33047 full length chimeric antibody against human Loricrin with an IgG1 mouse Fc region (antibody, V domains shown)
VH: QVQLVQSGAEVKKPGASVKVSCKASGYTFNDYYIHWVRQAPGQGLEWMGVISPNSGKTNYAQKFQGRVTMTRDTSISTAYMELSRLRSEDTAVYYCARDLYPDSSAFDIWGQGTLVTVSS
VL: DIELTQPPSVSVSPGQTASITCSGDNLGDKYAHWYQQKPGQAPVLVIYDDNERPSGIPERFSGSNSGNTATLTISGTQAEDEADYYCQSYDSGNRVFGGGTKLTVLG
Consider B1, for which the binding entry in experiment [1] and in experiment [2] was “binds” in each case.
